This note sets out measurements from publication PMC4859069 (2016).

No constants are given. Whether binding was seen depends on the method and setting. A result given as binding can be weak or reduced; the word gives no strength. Tags and fused reporters may be left off the sequences shown. For some of these results: Binding seen in cells or lysates may run through a third protein.

Experiment [1] deals with Flag-14-3-3ɛ (Drosophila). Description: co-IP; S2 cells co-transfected with Flag-tagged 14-3-3 (or Flag-GFP) and V5-Tctp or V5-Rheb; CHAPS-based lysis buffer; anti-Flag on G-sepharose beads, overnight at 4 °C; blot with anti-V5.
The next experiment deals with GST-14-3-3ɛ (Drosophila). Description: pull-down; 20 μg of each MBP- and GST-tagged protein in 500 μl pull-down buffer (20 mM Tris pH 7.5, 150 mM NaCl, 0.5 mM EDTA, 10% glycerol, 0.1% Triton X-100, 1 mM DTT), overnight at 4 °C with Glutathione Excellose resin; blot with anti-MBP; both purified.

B1: V5-Rheb (protein, UniProt Q9VND8 1-182)
chain: MPTKERHIAMMGYRSVGKSSLCIQFVEGQFVDSYDPTIENTFTKIERVKSQDYIVKLIDTAGQDEYSIFPVQYSMDYHGYVLVYSITSQKSFEVVKIIYEKLLDVMGKKYVPVVLVGNKIDLHQERTVSTEEGKKLAESWRAAFLETSAKQNESVGDIFHQLLILIENENGNPQEKSGCLVS
As to B1, in experiment [1], the binding result is reported as “binds”.

B2: MBP–Rheb (protein, UniProt Q9VND8 1-182)
chain: MPTKERHIAMMGYRSVGKSSLCIQFVEGQFVDSYDPTIENTFTKIERVKSQDYIVKLIDTAGQDEYSIFPVQYSMDYHGYVLVYSITSQKSFEVVKIIYEKLLDVMGKKYVPVVLVGNKIDLHQERTVSTEEGKKLAESWRAAFLETSAKQNESVGDIFHQLLILIENENGNPQEKSGCLVS
Take B2: in the experiment with GST-14-3-3ɛ (Drosophila), the binding result is on record as “binds”.

B3: V5-Tctp (protein, UniProt Q9VGS2 1-172)
chain: MKIYKDIITGDEMFADTYKMKLVDDVIYEVYGKLITRQGDDIKLEGANASAEEADEGTDITSESGVDVVLNHRLTECFAFGDKKSYTLYLKDYMKKVLAKLEEKSPDQVDIFKTNMNKAMKDILGRFKELQFFTGESMDCDGMVALVEYREINGDSVPVLMFFKHGLEEEKC
In the case of B3, in experiment [1], the binding entry was “binds”.

B4: MBP-Tctp (protein)
chain: MKIYKDIITGDEMFADTYKMKLVDDVIYEVYGKLITRQGDDIKLEGANASAEEADEGTDITSESGVDVVLNHRLTECFAFGDKKSYTLYLKDYMKKVLAKLEEKSPDQVDIFKTNMNKAMKDILGRFKELQFFTGESMDCDGMVALVEYREINGDSVPVLMFFKHGLEEEKC
In the case of B4, in the experiment with GST-14-3-3ɛ (Drosophila), the binding result is given as “binds”.
